In patent publication US20220267458A1:
No constants are given. Whether binding was seen depends on the method and setting. Some entries that bind do so weakly or less than the wild type.

Amino acid sequences for entries named in this document (tags omitted). Residues count along the entry.
UniProt Q9Y5U5, residues 26-241: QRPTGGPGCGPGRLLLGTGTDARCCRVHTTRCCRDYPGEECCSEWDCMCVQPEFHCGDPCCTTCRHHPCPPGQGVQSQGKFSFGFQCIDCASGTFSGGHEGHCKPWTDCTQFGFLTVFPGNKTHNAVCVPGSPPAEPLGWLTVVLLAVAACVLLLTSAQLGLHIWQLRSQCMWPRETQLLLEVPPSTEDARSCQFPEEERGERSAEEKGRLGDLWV

How the values were obtained:
[1] = molecular target: human GITR overexpressed on CHO cells (CHO-GITR) (human) (UniProt Q9Y5U5); assay: flow cytometry on CHO-GITR cells, PE anti-human Fc detection
[2] = molecular target: human GITR overexpressed on CHO cells (CHO-GITR) (human) (UniProt Q9Y5U5); assay: flow cytometry on CHO-GITR cells, PE anti-human Fc detection, MFI

binding [1]: binds
binding [2]: binds
B1: hcIgG-04 (antibody, V domains shown)
VH: QVQLQESGGGSVQAGGSLRLSCTASGFTVDDSGMGWYRQAPGNECELVSTISSDGSTYYADSVKGRFTISQDNAKNTVYLQMNSLKPEDTAVYYCAAPRVGVGWVRPCDYEYNYWGQGTQVTVSS
